Our source for the live neuron count values is the supplement of paper PMC10973195.

± gives the standard deviation of the averaged measurements. The list shows a part of the results. Values are raw readings; no control value is given beside them.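 A neuron, microglia and astrocyte co-culture models inflammatory neurodegeneration: bacterial LPS drives microglia-dependent neuron loss. Each compound was tested against DMSO vehicle wells on the same plates; BAY61-3606, a SYK inhibitor, was the reference neuroprotective control.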

One assay has as its system rat primary cerebellar neuron-glia coculture. Description: live neuron count (NeuO+) per image field (cells per field); higher = more surviving neurons. As to conditions: LPS 0 ng/mL; 1 µM; treatment time 3 days. As to the method:
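Primary rat (P3-7) cerebellar neuron-glia cocultures in 384-well plates were treated at DIV7 with 1 uM compound, then with or without 100 ng/mL LPS 30 min later, for 3 days. At DIV10 live cells were stained with Hoechst 33342, NeuO (live neurons), IB4-AF594 (microglia) and DRAQ7 (necrotic cells) and imaged at 10x (4 fields per well, IN Cell Analyzer 6000). Cells were classified with Cellpose/CellProfiler plus a Random Trees classifier. Values are per-well mean counts per image field (raw, not min-max normalised) and the median microglial FormFactor per image. Three technical replicates per repeat across 4 biological repeats; DMSO and BAY61-3606 serve as controls.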
In turn, `C[C@]12CC[C@H](O)C[C@H]1CC[C@@H]1[C@@H]2CC[C@]2(C)[C@@H](C3=CC(=O)OC3)CC[C@]12O` displayed a live neuron count of 2670 ± 360.
For the compound `CCOc1ccccc1N1CCN(Cc2cccc3ccccc23)CC1`, the live neuron count turned out to be 2630 ± 560.
The same measure, in the same setting: the result for `O=C(O[C@H]1C[N+]2(CCCOc3ccccc3)CCC1CC2)C(O)(c1cccs1)c1cccs1` reads 2600 ± 380; that for `C[N+]1(C)CCO[C@@](O)(c2ccc(-c3ccc([C@@]4(O)C[N+](C)(C)CCO4)cc3)cc2)C1`, 2620 ± 530.
The compound `CN(C)C(=O)Oc1ccc2cc(Br)ccc2c1Br` came in with a live neuron count of 2610 ± 460.
Take `COc1ccc2c(c[n+](C)c3c4cc5c(cc4ccc23)OCO5)c1OC`: the live neuron count worked out at 2530 ± 760.
Compound `O=C1CCCC2[C@H]3CNC[C@H](C3)CN12` (stereo not given in full) showed a live neuron count of 2680 ± 460.
The same measure, in the same setting: the result for `O=[N+]([O-])/N=C1\NCCN1Cc1ccc(Cl)nc1` reads 2750 ± 530; that for `Cn1c(CCCC(=O)O)nc2cc(N(CCCl)CCCl)ccc21`, 2620 ± 750; that for `C=C(C)[C@H]1Cc2c(ccc3c2O[C@@H]2COc4cc(OC)c(OC)cc4[C@@H]2C3=O)O1`, 99.7 ± 36.
As for `OC1(c2ccc(Cl)cc2)c2ccccc2C2=NCCN21` (stereo not given), the live neuron count is 1790 ± 610.
Still for that read-out and setting: with `Clc1ccc(OC[C@H]2CCN2)cn1` the figure was 2680 ± 430; with `Clc1ccc2c(c1Cl)CNCC2`, 2660 ± 520.
Same read-out and setting: the result for `NCCc1cc(I)c(Oc2ccc(O)c(I)c2)c(I)c1` reads 2630 ± 500.
Take `c1ccc(CCCN2CCN(CCOC(c3ccccc3)c3ccccc3)CC2)cc1`: the live neuron count was 757 ± 320.
The same measure, in the same setting: with `Cc1cccc(NC(=O)N[C@@H]2N=C(c3ccccc3)c3ccccc3N(C)C2=O)c1` the figure was 2570 ± 420.
On the same count and under the same terms, the result for `C[N+]1(C)[C@@H]2C[C@@H](OC(=O)[C@H](CO)c3ccccc3)C[C@H]1[C@@H]1O[C@@H]12` reads 2690 ± 440.
On the same count and under the same terms, the result for `O=C(NC1CN2CCC1CC2)c1cc(Br)cc2nc[nH]c12` (stereo not given) reads 2380 ± 700; that for `C[C@@H]1CN([C@H]2CC[C@](C#N)(c3ccc(F)cc3)CC2)CC[C@]1(C(=O)O)c1ccccc1`, 2610 ± 410.
The compound `CN/C(=N\S(=O)(=O)c1ccc(Cl)cc1)N1CC(c2ccccc2)C(c2ccc(Cl)cc2)=N1` (stereo not given) came in with a live neuron count of 2570 ± 340.

The same assay, now with this note: LPS 100 ng/mL; 1 µM; treatment time 3 days.
`C[C@]12CC[C@H](O)C[C@H]1CC[C@@H]1[C@@H]2CC[C@]2(C)[C@@H](C3=CC(=O)OC3)CC[C@]12O` yielded a live neuron count of 360 ± 420.
Still for that read-out and setting: with `CCOc1ccccc1N1CCN(Cc2cccc3ccccc23)CC1` the figure was 486 ± 900; with `O=C(O[C@H]1C[N+]2(CCCOc3ccccc3)CCC1CC2)C(O)(c1cccs1)c1cccs1`, 239 ± 200; with `C[N+]1(C)CCO[C@@](O)(c2ccc(-c3ccc([C@@]4(O)C[N+](C)(C)CCO4)cc3)cc2)C1`, 234 ± 230.
The compound `CN(C)C(=O)Oc1ccc2cc(Br)ccc2c1Br` displayed a live neuron count of 350 ± 300.
`COc1ccc2c(c[n+](C)c3c4cc5c(cc4ccc23)OCO5)c1OC` showed a live neuron count of 468 ± 600.
Still for that read-out and setting: with `O=C1CCCC2[C@H]3CNC[C@H](C3)CN12` (stereo not given in full) the figure was 593 ± 650; with `O=[N+]([O-])/N=C1\NCCN1Cc1ccc(Cl)nc1`, 307 ± 310.
The same measure, in the same setting: the result for `Cn1c(CCCC(=O)O)nc2cc(N(CCCl)CCCl)ccc21` reads 449 ± 720; that for `C=C(C)[C@H]1Cc2c(ccc3c2O[C@@H]2COc4cc(OC)c(OC)cc4[C@@H]2C3=O)O1`, 177 ± 93; that for `OC1(c2ccc(Cl)cc2)c2ccccc2C2=NCCN21` (stereo not given), 762 ± 540.
Same read-out and setting: the result for `Clc1ccc(OC[C@H]2CCN2)cn1` reads 333 ± 270; that for `Clc1ccc2c(c1Cl)CNCC2`, 372 ± 580.
Turning to `NCCc1cc(I)c(Oc2ccc(O)c(I)c2)c(I)c1`, the live neuron count worked out at 330 ± 310.
Same read-out and setting: with `c1ccc(CCCN2CCN(CCOC(c3ccccc3)c3ccccc3)CC2)cc1` the figure was 189 ± 160.
Still for that read-out and setting: the result for `Cc1cccc(NC(=O)N[C@@H]2N=C(c3ccccc3)c3ccccc3N(C)C2=O)c1` reads 198 ± 160; that for `C[N+]1(C)[C@@H]2C[C@@H](OC(=O)[C@H](CO)c3ccccc3)C[C@H]1[C@@H]1O[C@@H]12`, 254 ± 210; that for `O=C(NC1CN2CCC1CC2)c1cc(Br)cc2nc[nH]c12` (stereo not given), 346 ± 260.
Same read-out and setting: with `C[C@@H]1CN([C@H]2CC[C@](C#N)(c3ccc(F)cc3)CC2)CC[C@]1(C(=O)O)c1ccccc1` the figure was 274 ± 350; with `CN/C(=N\S(=O)(=O)c1ccc(Cl)cc1)N1CC(c2ccccc2)C(c2ccc(Cl)cc2)=N1` (stereo not given), 359 ± 590.
